These are yes or no findings as the source states them, for the method shown. In cells and extracts the contact can be indirect. A yes stands for co-enrichment or nearness to the bait. Other partners may have been found.
Biological target: T1, Endogenous CREPT (cell line not stated) (UniProt Q9NQG5)
T1 sequence: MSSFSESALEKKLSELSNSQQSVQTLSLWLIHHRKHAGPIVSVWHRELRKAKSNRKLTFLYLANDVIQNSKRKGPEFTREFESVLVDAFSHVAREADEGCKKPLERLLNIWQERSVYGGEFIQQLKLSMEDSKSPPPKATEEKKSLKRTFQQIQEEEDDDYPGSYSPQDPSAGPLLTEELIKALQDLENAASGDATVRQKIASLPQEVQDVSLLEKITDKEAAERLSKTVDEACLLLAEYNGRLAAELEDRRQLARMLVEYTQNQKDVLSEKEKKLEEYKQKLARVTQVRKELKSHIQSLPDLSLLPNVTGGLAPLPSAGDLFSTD
Experiment: affinity purification with mass spectrometry; immunoprecipitation with the anti-CREPT antibody 3E10, IgG as control; SDS-PAGE, Coomassie blue, bands cut out and identified by mass spectrometry; cells not named

Protein sequences, listed by entry. Tags and fused reporters are not part of them.
UniProt Q96GD4: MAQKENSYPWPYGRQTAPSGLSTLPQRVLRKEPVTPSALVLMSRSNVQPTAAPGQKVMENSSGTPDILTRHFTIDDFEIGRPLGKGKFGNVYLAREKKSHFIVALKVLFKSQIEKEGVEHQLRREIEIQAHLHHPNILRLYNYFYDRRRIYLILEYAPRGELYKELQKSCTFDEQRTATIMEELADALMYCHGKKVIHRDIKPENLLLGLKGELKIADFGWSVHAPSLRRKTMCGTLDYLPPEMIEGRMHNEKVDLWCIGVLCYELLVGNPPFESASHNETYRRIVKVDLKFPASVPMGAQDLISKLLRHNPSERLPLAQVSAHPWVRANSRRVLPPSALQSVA

Endogenous Aurora B (cell line not stated) (from UniProt Q96GD4 1-344) (enzyme)
binding: binds
